At least one structure is not confirmed: it was looked up by name or label, or the drawing left a doubt.
Test system: C57BL mice
Experiment: Pig pancreas xenograft transplanted under the kidney capsule, histological evaluation
Assay type: in vivo, mouse
Settings: rapamycin 1.5 mg/kg per day alone; C57BL hosts; 4 and 8 weeks after transplantation

CO[C@H]1C[C@@H]2CC[C@@H](C)[C@@](O)(O2)C(=O)C(=O)N2CCCC[C@H]2C(=O)O[C@H]([C@H](C)C[C@@H]2CC[C@@H](O)[C@H](OC)C2)CC(=O)[C@H](C)/C=C(\C)[C@@H](O)[C@@H](OC)C(=O)[C@H](C)C[C@H](C)/C=C/C=C/C=C/1C [rapamycin]
histology of pig pancreas xenografts: small and exhibited infiltrates with no traces of pancreatic tissue

Source: US8916147B2, “Universal donor-derived tolerogenic cells for inducing non-syngeneic transplantation tolerance” (Yeda Research and Devolpment Co. Ltd., priority 2005, dated 2014)
